Laboratory results: publication PMC9279342
No constants are given. Whether binding was seen depends on the method and setting. Binding seen in cells or lysates may run through a third protein. Some entries that bind do so weakly or less than the wild type. Where a sequence is shown, tags or fusion partners need not be part of it.

The chains behind the UniProt entries cited, without tags or fusion partners. Residues count along the entry.
UniProt P11021, residues 19-654: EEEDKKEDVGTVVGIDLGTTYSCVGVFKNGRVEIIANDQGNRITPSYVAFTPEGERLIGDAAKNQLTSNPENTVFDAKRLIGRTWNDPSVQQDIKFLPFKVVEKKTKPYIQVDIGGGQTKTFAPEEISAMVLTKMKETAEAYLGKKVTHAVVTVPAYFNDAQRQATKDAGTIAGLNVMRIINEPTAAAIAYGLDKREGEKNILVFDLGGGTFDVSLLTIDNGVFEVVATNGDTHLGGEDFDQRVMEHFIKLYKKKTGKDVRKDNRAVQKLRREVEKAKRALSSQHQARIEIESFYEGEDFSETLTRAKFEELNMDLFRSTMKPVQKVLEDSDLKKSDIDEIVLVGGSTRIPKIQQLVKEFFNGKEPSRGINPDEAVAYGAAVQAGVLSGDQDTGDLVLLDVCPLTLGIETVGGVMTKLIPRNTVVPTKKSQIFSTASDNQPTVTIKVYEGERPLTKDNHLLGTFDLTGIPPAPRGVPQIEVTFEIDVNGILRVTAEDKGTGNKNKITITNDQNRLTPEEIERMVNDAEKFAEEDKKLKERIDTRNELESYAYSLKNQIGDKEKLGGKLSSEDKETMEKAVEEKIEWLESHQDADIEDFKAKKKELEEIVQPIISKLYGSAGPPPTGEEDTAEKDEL

Target: T1, GST-Hevin mW633R (mouse Hevin W633R, GST inserted after the signal peptide) (mouse) (UniProt P70663)
T1 sequence: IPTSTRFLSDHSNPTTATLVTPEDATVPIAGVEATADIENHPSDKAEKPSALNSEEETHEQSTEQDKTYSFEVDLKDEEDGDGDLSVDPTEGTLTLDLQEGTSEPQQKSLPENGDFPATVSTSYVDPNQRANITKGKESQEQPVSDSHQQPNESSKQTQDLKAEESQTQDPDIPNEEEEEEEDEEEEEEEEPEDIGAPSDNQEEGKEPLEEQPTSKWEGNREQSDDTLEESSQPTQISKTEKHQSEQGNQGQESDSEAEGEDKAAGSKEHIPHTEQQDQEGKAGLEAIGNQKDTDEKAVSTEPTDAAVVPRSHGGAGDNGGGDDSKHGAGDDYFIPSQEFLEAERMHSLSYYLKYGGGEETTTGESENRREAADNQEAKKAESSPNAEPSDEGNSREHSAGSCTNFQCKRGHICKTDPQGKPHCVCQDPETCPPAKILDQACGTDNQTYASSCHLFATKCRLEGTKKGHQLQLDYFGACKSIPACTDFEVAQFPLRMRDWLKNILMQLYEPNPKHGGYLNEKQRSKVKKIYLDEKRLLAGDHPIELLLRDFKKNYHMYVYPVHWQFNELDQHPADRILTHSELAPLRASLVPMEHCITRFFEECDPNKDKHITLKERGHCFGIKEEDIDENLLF
Test: pull-down; GST-Hevin expressed in HEK293T cells (48 h) was precipitated from the lysate with Glutathione Sepharose beads, 2 h at 4 °C; lysis buffer 20 mM Tris-HCl pH 7.5, 150 mM NaCl, 0.5% NP-40, 1 mM DTT, in the presence or absence of 1 mM EDTA; endogenous BIP detected by immunoblot

In the case of “BIP (ER chaperone protein) (from UniProt P11021 19-654)”, the binding is reported as “binds”.
